Laboratory results as given in article PMC5662751, “Post-transcriptional gene silencing mediated by microRNAs is controlled by nucleoplasmic Sfpq”.
These are yes or no findings as the source states them, for the method shown. Binding seen in cells or lysates may run through a third protein. Some entries that bind do so weakly or less than the wild type.

T1: Splicing factor proline/glutamine-rich protein (Sfpq), mouse, endogenous (mouse (endogenous in RAW 264.7 and P19)) (UniProt Q8VIJ6)
T1 sequence: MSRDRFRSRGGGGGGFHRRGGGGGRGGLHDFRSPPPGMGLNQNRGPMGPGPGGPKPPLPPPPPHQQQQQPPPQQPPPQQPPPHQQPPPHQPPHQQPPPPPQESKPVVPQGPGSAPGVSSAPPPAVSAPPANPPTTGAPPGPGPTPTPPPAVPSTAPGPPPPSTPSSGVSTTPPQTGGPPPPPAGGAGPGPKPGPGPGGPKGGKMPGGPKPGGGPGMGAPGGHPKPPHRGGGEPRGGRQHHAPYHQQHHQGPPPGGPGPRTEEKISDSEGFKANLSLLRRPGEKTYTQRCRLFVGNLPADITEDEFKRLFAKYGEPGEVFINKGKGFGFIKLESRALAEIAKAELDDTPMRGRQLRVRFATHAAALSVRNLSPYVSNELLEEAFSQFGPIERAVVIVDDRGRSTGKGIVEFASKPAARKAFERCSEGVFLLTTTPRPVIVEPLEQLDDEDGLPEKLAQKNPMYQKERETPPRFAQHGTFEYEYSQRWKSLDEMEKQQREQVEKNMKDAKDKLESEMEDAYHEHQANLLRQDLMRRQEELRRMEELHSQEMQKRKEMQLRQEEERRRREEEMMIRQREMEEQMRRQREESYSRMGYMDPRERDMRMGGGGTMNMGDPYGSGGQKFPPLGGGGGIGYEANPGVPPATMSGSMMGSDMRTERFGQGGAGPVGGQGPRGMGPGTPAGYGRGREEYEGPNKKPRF

T2: Splicing factor proline/glutamine-rich protein (Sfpq), human, endogenous (human (endogenous in HEK293T)) (UniProt P23246)
T2 sequence: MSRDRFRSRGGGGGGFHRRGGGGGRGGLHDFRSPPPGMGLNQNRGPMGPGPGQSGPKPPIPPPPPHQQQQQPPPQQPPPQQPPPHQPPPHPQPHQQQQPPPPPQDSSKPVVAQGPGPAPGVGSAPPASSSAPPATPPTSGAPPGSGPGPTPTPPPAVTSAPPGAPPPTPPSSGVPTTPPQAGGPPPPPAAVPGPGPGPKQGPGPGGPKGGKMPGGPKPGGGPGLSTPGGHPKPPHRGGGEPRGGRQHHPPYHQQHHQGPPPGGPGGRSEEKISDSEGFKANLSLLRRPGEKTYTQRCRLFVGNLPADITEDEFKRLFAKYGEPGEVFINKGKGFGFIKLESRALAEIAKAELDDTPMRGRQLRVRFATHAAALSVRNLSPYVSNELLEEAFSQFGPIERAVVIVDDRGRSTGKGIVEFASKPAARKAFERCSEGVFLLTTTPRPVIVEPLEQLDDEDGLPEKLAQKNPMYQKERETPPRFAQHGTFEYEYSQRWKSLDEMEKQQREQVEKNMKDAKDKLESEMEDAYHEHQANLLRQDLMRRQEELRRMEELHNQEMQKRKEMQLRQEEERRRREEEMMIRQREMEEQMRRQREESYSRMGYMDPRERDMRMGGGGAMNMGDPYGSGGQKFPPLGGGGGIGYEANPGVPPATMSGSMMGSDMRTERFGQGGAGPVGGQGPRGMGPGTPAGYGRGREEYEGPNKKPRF


What was measured:
[1] = target: T1, Splicing factor proline/glutamine-rich protein (Sfpq), mouse, endogenous (mouse (endogenous in RAW 264.7 and P19)); assay: co-IP; endogenous proteins from whole-cell lysates of RAW 264.7, P19 and HEK293T cells; Protein G-Dynabeads-coupled antibodies, 16 h, 4 °C; where indicated RNase A 10 mg/ml for 30 min; cells also transfected with siRNAs against Sfpq, Pspc1 or NonO
[2] = target: T2, Splicing factor proline/glutamine-rich protein (Sfpq), human, endogenous (human (endogenous in HEK293T)); assay: as above

Binder	binding [1]	binding [2]
Paraspeckle Component 1 (Pspc1), mouse, endogenous (protein, UniProt Q8R326 1-523) MMLRGNLKQVRIEKNPARLRALESAAGESEPVAAAAMALTLAGEQAPPPAPSEEHPDEELGFTIDIKSFLKPGEKTYTQRCRLFVGNLPTDITEEDFKRLFERYGEPSEVFINRDRGFGFIRLESRTLAEIAKAELDGTILKSRPLRIRFATHGAALTVKNLSPVVSNELLEQAFSQFGPVEKAVVVVDDRGRATGKGFVEFAAKPPARKALERCGDGAFLLTTTPRPVIVEPMEQFDDEDGLPEKLMQKTQQYHKEREQPPRFAQPGTFEFEYASRWKALDEMEKQQREQVDRNIREAKEKLEAEMEAARHEHQLMLMRQDLMRRQEELRRLEELRNQELQKRKQIQLRHEEEHRRREEEMIRHREQEELRRQQEGGFKPNYMENREQEMRMGDMGPRGAINMGDAFSPAPAGTQGPPPMMGMNMNNRGTIPGPPMGPGPAMGPEGAANMGTPMIPDNGAVHNDRFPQGPPSQMGSPMGNRTGSETPQAPMSGVGPVSGGPGGFGRGSQGGNFEGPNKRRRY	binds	
Non-POU Domain Containing, Octamer-Binding (NonO), mouse, endogenous (protein, UniProt Q99K48 1-473) MQSNKAFNLEKQNHTPRKHHQHHHQQHHQQQQQQQQQQPPPPIPANGQQASSQNEGLTIDLKNFRKPGEKTFTQRSRLFVGNLPPDITEEEMRKLFEKYGKAGEVFIHKDKGFGFIRLETRTLAEIAKVELDNMPLRGKQLRVRFACHSASLTVRNLPQYVSNELLEEAFSVFGQVERAVVIVDDRGRPSGKGIVEFSGKPAARKALDRCSEGSFLLTTFPRPVTVEPMDQLDDEEGLPEKLVIKNQQFHKEREQPPRFAQPGSFEYEYAMRWKALIEMEKQQQDQVDRNIKEAREKLEMEMEAARHEHQVMLMRQDLMRRQEELRRMEELHNQEVQKRKQLELRQEEERRRREEEMRRQQEEMMRRQQEGFKGTFPDAREQEIRMGQMAMGGAMGINNRGAMPPAPVPPGTPAPPGPATMMPDGTLGLTPPTTERFGQAATMEGIGAIGGTPPAFNRPAPGAEFAPNKRRRY	binds	
Paraspeckle Component 1 (Pspc1), human, endogenous (protein, UniProt Q8WXF1 1-523) MMLRGNLKQVRIEKNPARLRALESAVGESEPAAAAAMALALAGEPAPPAPAPPEDHPDEEMGFTIDIKSFLKPGEKTYTQRCRLFVGNLPTDITEEDFKRLFERYGEPSEVFINRDRGFGFIRLESRTLAEIAKAELDGTILKSRPLRIRFATHGAALTVKNLSPVVSNELLEQAFSQFGPVEKAVVVVDDRGRATGKGFVEFAAKPPARKALERCGDGAFLLTTTPRPVIVEPMEQFDDEDGLPEKLMQKTQQYHKEREQPPRFAQPGTFEFEYASRWKALDEMEKQQREQVDRNIREAKEKLEAEMEAARHEHQLMLMRQDLMRRQEELRRLEELRNQELQKRKQIQLRHEEEHRRREEEMIRHREQEELRRQQEGFKPNYMENREQEMRMGDMGPRGAINMGDAFSPAPAGNQGPPPMMGMNMNNRATIPGPPMGPGPAMGPEGAANMGTPMMPDNGAVHNDRFPQGPPSQMGSPMGSRTGSETPQAPMSGVGPVSGGPGGFGRGSQGGNFEGPNKRRRY		binds
